This test addresses 3xFLAG-KLF2 wildtype (UniProt Q60843). The experiment in a line: co-IP.

Sequences of proteins named here, by UniProt entry; tags and fusion partners are left off.
UniProt Q60843: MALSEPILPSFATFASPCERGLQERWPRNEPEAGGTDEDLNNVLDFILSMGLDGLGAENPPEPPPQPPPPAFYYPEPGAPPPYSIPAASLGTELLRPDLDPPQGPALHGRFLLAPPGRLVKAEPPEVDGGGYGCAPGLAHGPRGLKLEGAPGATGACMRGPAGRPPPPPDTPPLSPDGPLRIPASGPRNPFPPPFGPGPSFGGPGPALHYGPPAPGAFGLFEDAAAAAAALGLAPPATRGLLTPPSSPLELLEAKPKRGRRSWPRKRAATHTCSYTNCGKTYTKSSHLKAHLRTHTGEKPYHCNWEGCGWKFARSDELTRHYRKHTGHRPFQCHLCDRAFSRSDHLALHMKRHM
UniProt Q8VBV4: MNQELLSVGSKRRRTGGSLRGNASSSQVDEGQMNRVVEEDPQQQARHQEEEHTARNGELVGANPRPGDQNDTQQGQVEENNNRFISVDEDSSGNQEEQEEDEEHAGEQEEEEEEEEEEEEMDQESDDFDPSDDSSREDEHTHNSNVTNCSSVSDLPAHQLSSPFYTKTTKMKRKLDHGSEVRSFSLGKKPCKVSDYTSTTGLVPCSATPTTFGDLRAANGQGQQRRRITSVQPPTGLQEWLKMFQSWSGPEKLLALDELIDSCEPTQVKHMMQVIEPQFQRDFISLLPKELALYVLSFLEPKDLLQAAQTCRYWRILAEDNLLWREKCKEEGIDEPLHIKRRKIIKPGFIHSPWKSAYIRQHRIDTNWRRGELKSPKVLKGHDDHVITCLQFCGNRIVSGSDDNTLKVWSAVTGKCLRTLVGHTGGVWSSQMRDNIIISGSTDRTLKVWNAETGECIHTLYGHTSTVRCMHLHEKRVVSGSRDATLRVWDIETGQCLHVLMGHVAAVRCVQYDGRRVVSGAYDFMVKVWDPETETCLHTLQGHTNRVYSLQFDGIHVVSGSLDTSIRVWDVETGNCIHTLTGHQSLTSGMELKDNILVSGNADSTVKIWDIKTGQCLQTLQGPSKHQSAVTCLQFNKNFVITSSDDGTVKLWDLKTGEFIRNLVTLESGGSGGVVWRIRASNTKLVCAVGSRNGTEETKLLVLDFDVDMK

The values below come from article doi:10.1101/2021.03.29.435803.

No constants are given. Whether binding was seen depends on the method and setting. Binding seen in cells or lysates may run through a third protein. Some entries that bind do so weakly or less than the wild type.

With HA-FBXW7 (from UniProt Q8VBV4 1-710), the binding result is on record as “binds”.
